Reference: publication PMC8079276

B1: Peptidyl-prolyl cis-trans isomerase FKBP8 isoform X1 (protein, UniProt O35465-2 1-403)
chain: MASWAEPSEPAALRLPGAPLLEGFEVLDGVDDAEEEDDLSGLPPLEDMGQPTVEEAEQPGALAREFLAATEPEPAPAPAPEEWLDILGNGLLRMKTLVPGPKGSSRPLKGQVVTVHLQMSLENGTRVQEEPELAFTLGDCDVIQALDLSVPLMDVGETAMVTADSKYCYGPQGSRSPYIPPHAALCLEVTLKTAEDGPDLEMLSGQERVALANRKRECGNAHYQRADFVLAANSYDLAIKAITSNTKVDMTCEEEEELLQLKVKCLNNLAASQLKLDHYRAALRSCSQVLEHQPDNIKALFRKGKVLAQQGEYSEAIPILRAALKLEPSNKTIHAELSKLVKKRAAQRSTETALYRKMLGNPSRLPAKCPGKGAWSIPWKWLFGATAVALGGVALSVVIAARN
B2: Trafficking kinesin-binding protein 1 isoform X1 (protein, UniProt Q6PD31 1-939)
chain: MALAIQLRQPSRAQPLPGLSHTLAGTDSCDVCNSTNLPEVEIISLLEEQLPHYKLRADTIYGYDHDDWLHTPLISPDANIDLTTEQIEETLKYFLLCAERVGQMTKTYNDIDAVTRLLEEKERDLELAARIGQSLLKKNKTLTERNELLEEQVEHIREEVSQLRHELSMKDELLQFYTSAAEESEPESVCSTPLKRNESSSSVQNYFHLDSLQKKLKDLEEENVVLRSEACQLKTETITYEEKEQQLVNDCVKELRDANVQIASISEELAKKTEDAARQQEEITHLLSQIVDLQKKAKSCAVENEELVQHLGAAKDAQRQLTAELRELEDKYAECMEMLHEAQEELKNLRNKTMPTSRRYHSLGLFPMDSLAAEIEGTMRKELQLEELESPDITHQKRVFETVRNVNQVVKQRSLTPSPMNIPGSNQSSAMNSLLSSCVSTPRSSFYGSDVSNVVLDNKTNSILLETEAADLGNEDHNKKPGTPGTPGSHDLETALRRLSLRRENYLSERRFFEEEQERKLRELAEKGELHSGSLTPTESIMSLGTHSRFSEFTGFSGMSFSSRSYLPEKLQIVKPLEGSATLHHWQQLAQPHLGGILDPRPGVVTKGFRTLDVDLDEVYCLNDFEEDDTGDHISLAGLATSTPIQHPETSAHHPGKCMSQTNSTFTFTTCRILHPSDELTRVTPSLNSAPAPACSSTSHLKSTPVATPCTPRRLSLAESFTNVRESTTTMSTSLGLVWLLKERGISAAVYDPQSWDRAGRGSLLHSYTPRMAVIPSTPPNSPMQTPSASPPSFEFKCTSPPYNNFLASKPASSILREVREKRPVRSSESQTDVSVSNLNLVDKVRRFGVARVVNSGRARIPTLTEEQGPLLCGPTGPAQALVPGGLVPEGLPLGCPSGIRRNRSFPTMVGSSVQMRAPVILTSGILMGAKLPKQTSLR
B3: MICOS complex subunit Mic19 isoform X1 (protein, UniProt Q9CRB9 1-227)
chain: MGGTASTRRVTFEADENENITVVKGIRLSENVIDRMKESSPSGSKSQRYSSVYGASVSDEDLKRRVAEELALEQAKKESEHQRRLKQARDLERERAAANEQLTRAVLRERISSEEERMKAKHLARQLEEKDRVMRKQDAFYKEQLARLEERSSEFYKVTTEEYQKAAEEVEAKFKRYEYHPVCADLQTKILQCYRQNTQQTLSCSALASQYMHCVNHAKQSMLEKGG
B4: trafficking kinesin-binding protein 2 (protein, UniProt Q6P9N8 1-913)
chain: MSQSQNAIFKSRTGEANLMSSNHRDSESITDVCSNEDLPEVELVNLLEEQLPQYKLRVDSLFLYENQDWAQSSHQQQDAPETLSPVLAEETFRYMILGTDRVEQMTKTYNDIDMVTHLLAERDRDLELAARIGQALLKRNHVLSEQNEALEEQLGQAFDQVNQLQHELSKKDELLRIVSIASEESETDSSCSTPLRFNESFSLSQGLLQLDMLHEKLRELEEENMALRSKACHIKTETFTYEEKEQQLVNDCVKELRETNAQMSRMTEELSGKSDELLRYQEEISSLLSQIVDLQHKLKEHVIEKEELRLHLQASKDAQRQLTMELHELQDRNMECLGMLHESQEEIKELRSKSGPSAHLCFSQSYGVFTGESLAAEIEGTMRKKLSLDEESVSKQKAQQKRVFDTVKVANDTRGRSVTFPVLLPIPGSNRSSVIMTAKPFESGVQPAEDKTLLSPGGSTEVPGNSQPTNPPGSPEDSDLATALHRLSLRRQNYLSEKQFFAEEWERKIQILAEQEEEVSSCDAPTENLASVCTDQSETTDLGSASCLRGFMPEKLQIVKPLEGSQTLHHWQQLAQPNLGTILDPRPGVITKGFTQVPKDVVYHISDLEEDEEEGITFQVQQPLQLEQKPALPTPVTGIFLPPMTSAGGPGTVATSNPGKCLSFTNSTFTFTTCRILHPSDITQVTPSSGFPSLACGSSASSSSNTAVNSPAASYRLSIGESITNRRDSTITFSSTRSLAKLLQERGISAKVYHSPASENPLLQPCPKALATPSTPPNSPAQSPCSSPLPFEPRVHVSENFLASRPAETFLQEMYGLRPSRAPPDVGQLKMNLVDRLKRLGIARVVKTPDPQENGKSREAEMGLQKPDPAVYLNSGGSLLCGLRRNQSLPVMMGSFGAPVCTTSPKMGILKED
B5: short-chain–specific acyl-CoA dehydrogenase (protein, UniProt Q07417 25-412)
chain: LHTVYQSVELPETHQMLRQTCRDFAEKELVPIAAQLDREHLFPTAQVKKMGELGLLAMDVPEELSGAGLDYLAYSIALEEISRACASTGVIMSVNNSLYLGPILKFGSAQQKQQWITPFTNGDKIGCFALSEPGNGSDAGAASTTAREEGDSWVLNGTKAWITNSWEASATVVFASTDRSRQNKGISAFLVPMPTPGLTLGKKEDKLGIRASSTANLIFEDCRIPKENLLGEPGMGFKIAMQTLDMGRIGIASQALGIAQASLDCAVKYAENRNAFGAPLTKLQNIQFKLADMALALESARLLTWRAAMLKDNKKPFTKESAMAKLAASEAATAISHQAIQILGGMGYVTEMPAERYYRDARITEIYEGTSEIQRLVIAGHLLRSYRS
B6: KAT8 regulatory NSL complex subunit 1 (protein, UniProt Q80TG1 1-1036)
chain: MAAMAPALTDAAAEAHHIRFKLAPPSSTLSPGSAENNGNANILISANGTKRKAIAAEDPSLDFRNNPTKEDLGKLQPLVASYLCSDVTSVPAKESLKLQGVFSKQTVLKSHPLLSQSYELRAELLGRQPVLEFSLENLRTMNTSGQTALPQAPVNGLAKKLTKSSTHSDHDNSSSLNGGKRSLTSSSLQGGEVGGPDSGNLKGGMTNCTLPHRSLDIQHTTLYSNNSTANKSSVNSMDQPALQGSSRLSPSTDSSSNLTNVKLEVKKSPLSSILFSALDSDTRITALLRRQADIEIRARRLQKRLQVVQAKQVERHLQHQLGGFLETTLSKLPNLESLRSRSQLMLTRKAEAALRKAASESATSEGLSNFLKSDSISEELERFTASGIANLRCSEQAFDSDVTDSSSGGESDIEEEELTRADPEQCHVPLKRRSEWRWAADRAAIVSRWNWLQAHVSDLEYRIRQQTDIYKQIRANKGLIVLGEAPFPDHTTDLLSLSSEVKTDHGRDKLIESVSQPSENHGILVSNITESLSTKSCGAPRPVNGVVNSLQPVLADQVPGDSSDAEEQLHKKQRLNLVSSSDGTCVAARTRPVLTCKKRRLVRPSSIVPLSKKVHRNVRSGCDVNPSCALCGSGSVNTMPPEIHYEAPLLERLSQLDSCVHPVLAFPDDVPTSLHFQSMLKSQWQNKPFDKIKPTKKFSLKHRATMPCSLSDPVRKDRHKLVNSFLTTAMLKHHTDMSSPSYLTATHHPPHSPLVRQLSTSSDTSTPTSSGSQVAASTSQPVRRRRGESSFDINNIVIPMSVAATTRVEKLQYKEILTPSWREVDVQSLKGSPDEENEEIEDLSDAAFAALHAKCEEMERARWLWTTSVPPQRRGSRSYRSSDGRTTPQLGSANPSTPQPASPDVSSSHSLSEFSHGQSPRSPISPELHSAPLTPVARDSLRHLASEDTRCSTPELGLDEQSVQPWERRTFPLAYSPQAECEEQLDAQDTAARCTRRTSGSKTGREAEVAPTSPPVVPLKSRHLAATVTAQRPAHR

What follows are binders tested against T1, UDP-N-acetylglucosamine-peptide N-acetylglucosaminyltransferase (mouse (endogenous in MEFs)) (UniProt Q8CGY8) (assay: affinity purification with mass spectrometry; endogenous OGT immunoprecipitated (antibody AL24, protein G magnetic beads, TCL buffer: 50 mM Tris HCl, 150 mM NaCl, pH 7.5, 1% NP-40, 2 mM EDTA) from a 1:1:1 mix of SILAC-labelled lysates of WT, H2O2-treated (2.5 mM, 1.5 h) and OGT-null MEFs, precleared with rabbit IgG; in-gel trypsin digestion, LC-MS/MS; interactor if log2 WT or H2O2/null >=1 in 2 or more replicates).
T1 sequence: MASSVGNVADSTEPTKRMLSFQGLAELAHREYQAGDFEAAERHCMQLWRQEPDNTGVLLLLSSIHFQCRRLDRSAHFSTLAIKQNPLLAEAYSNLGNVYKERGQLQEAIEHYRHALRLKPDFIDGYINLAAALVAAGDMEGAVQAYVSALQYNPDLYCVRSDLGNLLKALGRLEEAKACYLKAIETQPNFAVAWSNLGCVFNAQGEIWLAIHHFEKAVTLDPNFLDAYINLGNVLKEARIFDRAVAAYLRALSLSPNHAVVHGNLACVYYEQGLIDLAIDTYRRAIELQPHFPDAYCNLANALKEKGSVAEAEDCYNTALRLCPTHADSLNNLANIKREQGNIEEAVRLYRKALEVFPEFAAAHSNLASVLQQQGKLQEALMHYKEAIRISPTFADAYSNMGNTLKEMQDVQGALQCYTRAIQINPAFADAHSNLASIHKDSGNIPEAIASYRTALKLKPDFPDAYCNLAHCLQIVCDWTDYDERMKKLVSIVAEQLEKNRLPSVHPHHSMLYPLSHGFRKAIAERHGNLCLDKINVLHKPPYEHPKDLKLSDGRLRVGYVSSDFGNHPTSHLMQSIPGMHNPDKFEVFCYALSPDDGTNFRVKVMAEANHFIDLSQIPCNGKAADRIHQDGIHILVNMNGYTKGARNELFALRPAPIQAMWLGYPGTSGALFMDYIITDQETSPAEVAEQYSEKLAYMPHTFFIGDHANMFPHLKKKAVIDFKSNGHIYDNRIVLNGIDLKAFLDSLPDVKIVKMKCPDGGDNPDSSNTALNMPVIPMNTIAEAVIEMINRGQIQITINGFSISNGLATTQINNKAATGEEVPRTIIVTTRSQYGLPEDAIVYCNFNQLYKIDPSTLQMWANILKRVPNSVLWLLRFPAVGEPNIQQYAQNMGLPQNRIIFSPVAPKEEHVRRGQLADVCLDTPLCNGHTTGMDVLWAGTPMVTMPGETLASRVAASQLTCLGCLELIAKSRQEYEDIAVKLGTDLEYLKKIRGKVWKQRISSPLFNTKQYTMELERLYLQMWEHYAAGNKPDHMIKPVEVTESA
With B1 the binding was “binds”.
With B2 the binding was “binds”.
With B3 the binding was “binds”.
B4 was tested, and the binding was “binds”.
For B5, the binding was “binds”.
For B6, the binding was “binds”.

These are yes or no findings as the source states them, for the method shown. Binding seen in cells or lysates may run through a third protein. Here binding means that the protein was enriched with, or labelled near, the bait; the list need not be complete. Tags and fused reporters may be left off the sequences shown.
